Measurements published in publication PMC6134095.
No constants are given. Whether binding was seen depends on the method and setting.

Amino acid sequences for entries named in this document (tags omitted). Residues count along the entry.
UniProt P06136, residues 58-276: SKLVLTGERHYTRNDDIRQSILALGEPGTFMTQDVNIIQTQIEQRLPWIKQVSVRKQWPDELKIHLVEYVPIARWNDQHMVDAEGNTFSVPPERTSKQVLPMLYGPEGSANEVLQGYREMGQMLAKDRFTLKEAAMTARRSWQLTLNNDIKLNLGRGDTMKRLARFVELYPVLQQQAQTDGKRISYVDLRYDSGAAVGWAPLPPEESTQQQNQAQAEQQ

Tests used:
[1] = biological target: FtsQ (58–276), periplasmic domain of E. coli FtsQ (Escherichia coli strain K-12) (UniProt P06136); experiment: AUC; velocity sedimentation, FtsB (22–103) and FtsQ (58–276) alone or mixed at 1 mg/ml; 50,000 rpm, 20°C; 25 mM Tris pH 7.4, 100 mM NaCl, 1 mM DTT; both purified
[2] = biological target: FtsQ (58–276), periplasmic domain of E. coli FtsQ (Escherichia coli strain K-12) (UniProt P06136); experiment: SEC-MALS; FtsB (22–103) and FtsQ (58–276) singly and in a complex; Superdex S-75 10/300; 25 mM Tris pH 7.4, 100 mM NaCl, 1 mM DTT; both purified

Substance: FtsQ (58–276), periplasmic domain of E. coli FtsQ (from UniProt P06136 58-276) (domain or fragment)
- binding [1]: no binding (tested: 1 mg/ml)
- binding [2]: no binding
